# From PubChem BioAssay AID2613 (National Center for Advancing Translational Sciences (NCATS), 2010)
# Sequences of proteins named here, by UniProt entry; tags and fusion partners are left off.
# UniProt P04062, whole entry N409S: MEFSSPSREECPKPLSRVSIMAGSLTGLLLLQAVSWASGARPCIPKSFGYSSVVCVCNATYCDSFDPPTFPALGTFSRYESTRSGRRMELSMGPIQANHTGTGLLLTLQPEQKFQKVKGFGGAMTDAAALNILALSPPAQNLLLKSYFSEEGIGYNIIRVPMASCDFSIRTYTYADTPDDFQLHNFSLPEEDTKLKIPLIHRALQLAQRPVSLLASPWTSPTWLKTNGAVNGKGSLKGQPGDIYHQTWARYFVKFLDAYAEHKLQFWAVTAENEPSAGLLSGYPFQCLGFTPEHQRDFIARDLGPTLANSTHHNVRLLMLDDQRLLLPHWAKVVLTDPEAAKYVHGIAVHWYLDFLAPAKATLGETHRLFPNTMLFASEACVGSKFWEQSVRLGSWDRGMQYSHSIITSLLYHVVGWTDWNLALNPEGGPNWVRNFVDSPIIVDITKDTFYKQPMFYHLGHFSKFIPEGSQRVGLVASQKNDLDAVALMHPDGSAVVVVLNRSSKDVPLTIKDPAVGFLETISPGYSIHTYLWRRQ
# This list was built around the results that the source calls inconclusive (neither active nor inactive); the mix of calls is not that of the screen. Where the call is inconclusive, the potency comes from a doubtful curve fit. The source made the active and inactive calls. The call rests on the fitted dose curve; in most records, active means well fitted inhibition curve with a large enough effect; inconclusive means small, poorly fitted or top-dose-only effect; inactive means flat fitted curve, though single readings scatter.
# Target: Lysosomal acid glucosylceramidase (Homo sapiens) (UniProt P04062)
# Test: qHTS Assay for Inhibitors and Activators of N370S glucocerebrosidase as a Potential Chaperone Treatment of Gaucher Disease: Activity in N370S Spleen Homogenate Using a Red Fluorescent Substrate
# Settings: red fluorogenic substrate; series mostly up to 49.6 µM; activity change, negative = inhibition: at the top concentration
# Text: NIH Chemical Genomics Center [NCGC]
# NIH Molecular Libraries Probe Production Centers Network [MLPCN]
# Assay Submitter (PI): Wei Zheng
# Glucocerebrosidase (GC) catalyzes the hydrolysis of beta-glucocerebroside to glucose and ceramide in lysosomes. Mutations in the glucocerebrosidase gene result in Gaucher disease, an autosomal recessive lysosomal storage disorder. Many of the mutations encountered in patients with Gaucher disease are missense alterations that may cause misfolding, decreased stability and/or mistrafficking of this lysosomal protein. […] These inhibitors include iminosugar analogs and three non-iminosugar inhibitors identified from a previous HTS of 62,000 compounds with the wild type recombinant enzyme. However, the enhancement of enzyme activity by the chaperone action of an enzyme inhibitor must be balanced against the direct inhibition of the enzyme. An enzyme activator could also function as a chaperone by binding to the enzyme and helping to correct its misfolding and mistrafficking. While activators for GC have not yet been identified, they may have better therapeutic potential than inhibitors. Therefore the discovery and development of chemical activators may provide a new strategy for the chaperone therapy.
# We have optimized a new assay using N370S mutant GC derived from the spleen of a Gaucher patient. […] In addition, the MLPCN compound library has expanded, which increases the chance of finding new and better probes.
# This confirmation assay tests for compound activity in spleen homogenate from a patient homozygous for the N370S mutation using an alternate resorufin-based substrate.
# NCGC Assay Protocol Summary:
# This is a fluorogenic enzyme assay with resorufin-beta-D-glucopyranoside as the substrate and mutant N370S glucocerebrosidase from human spleen homogenate as the enzyme preparation. Upon the hydrolysis of this fluorogenic substrate, the resulting product, […] which can be detected by a standard fluorescence plate reader. Data were normalized to the controls for basal activity (without enzyme) and 100% activity (with enzyme). The AC50 values were determined from concentration-response data modeled with the standard Hill equation.
# Assay buffer: 50 mM citric acid (titrated with potassium phosphate to pH 5.0), 100 mM potassium chloride, 10 mM sodium chloride, 1 mM magnesium chloride, 0.01% Tween-20.
# 1536-well assay protocol:
# (1) Add 2 ul/well of spleen homogenate (27 ug final)
# (2) Add 23 nL compounds in DMSO solution. The final titration was 0.5 nM to 58 uM.
# (3) Add 2 ul of substrate (1 mM final)
# (4) Incubate at 37C for 40 min.
# (5) Add 2 ul stop solution (1M NaOH and 1M Glycine mixture, pH 10)
# (6) Detect the assay plate in a ViewLux plate reader (PerkinElmer) with Ex=365 nm and Em=440nm.
# Keywords: Glucocerebrosidase, beta-glucosidase, Gaucher Disease, pharmacological chaperone, chaperone therapy, high throughput screening, glucocerebrosidase inhibitor, MLSMR, MLSCN, NIH Roadmap, qHTS and NCGC
SMILES,Potency,"activity change, negative = inhibition"
CCC(=O)OCCNc1nc(-c2ccccc2)nc2ccccc12,"inconclusive: 17.8 µM [inhibitor, partial curve]",–
FC(F)(F)c1ccccc1-c1nccc(NCc2cccs2)n1,"inconclusive: 15.8 µM [inhibitor, partial curve]",–
O=S(=O)(c1ccc(Cl)cc1)N1CCN(c2nc(-c3cccs3)nc3ccccc23)CC1,active: 0.891 µM,–
Cc1ccc(S(=O)(=O)Nc2ccc(C(=O)Nc3cc(C)on3)cc2)cc1,"inconclusive: 17.8 µM [inhibitor, full curve, poor fit]",–
Cc1cc(N2CCOCC2)nc2ccc(NC(=O)C3CC3)cc12,"inconclusive: 15.8 µM [inhibitor, partial curve, poor fit]",–
COc1ccccc1C(=O)COC(=O)c1ccccc1OCC(=O)Nc1ccc(SC(F)F)cc1,–,inactive: 1.36%
Cc1cccc(Nc2nc(NCCO)nc(N3CCCC3)n2)c1,"inconclusive: 31.6 µM [inhibitor, partial curve, poor fit]",–
COc1cccc(CN(C)c2nc(-c3cccs3)nc3ccccc23)c1,active: 2.51 µM,–
c1ccc(CNc2nc(-c3cccs3)nc3ccccc23)cc1,"inconclusive: 15.8 µM [inhibitor, partial curve]",–
CN(C)c1ccc(C(=C2C=CC(=[N+](C)C)C=C2)c2ccc(N(C)C)cc2)cc1,"inconclusive: 31.6 µM [inhibitor, partial curve, poor fit]",–
Cc1ccccc1-c1nccc(NCc2cccs2)n1,"inconclusive: 12.6 µM [inhibitor, partial curve]",–
COc1ccc(N(CC(=O)NC2CCCCC2)S(=O)(=O)c2c(C)[nH]c(=O)[nH]c2=O)cc1,"inconclusive: 7.94 µM [inhibitor, full curve]",–
CN(c1ccc(C(=O)Nc2nccs2)cc1)S(=O)(=O)c1ccccc1,"inconclusive: 31.6 µM [inhibitor, partial curve]",–
Cc1cc(C)n2ncc(C(=O)Nc3cccc(O)c3)c2n1,–,inactive: -4.31%
CC(C)C(C)NC(=O)CSc1nc2scc(-c3ccco3)c2c(=O)n1-c1ccccc1 (stereo unspecified),"inconclusive: 35.5 µM [inhibitor, partial curve]",–
Cc1ccc2nc(-c3ccc(SCC(=O)N4CCc5ccccc54)nc3)[nH]c2c1,"inconclusive: 17.8 µM [inhibitor, full curve]",–

# A different layout for two compounds above:
SMILES | Potency | activity change, negative = inhibition
FC(F)(F)c1ccccc1-c1nccc(NCc2cccs2)n1 | inconclusive: 15.8 µM [inhibitor, partial curve] | –
O=S(=O)(c1ccc(Cl)cc1)N1CCN(c2nc(-c3cccs3)nc3ccccc23)CC1 | active: 0.891 µM | –
